At least one structure is not confirmed: it was looked up by name or label, or the drawing left a doubt. Starred links: 1 amine or outer side, 2 acyl side, 3 side chain; linkers in the order of their positions; H or OH if unused. Positions of bridges follow the written chain, without caps; N, C: chain ends. Non-standard residues stand in square brackets, D forms with d. Chains are numbered I, II in the order given. X1 = NCCC(=O)N(CCC(=O)[*:1])CCN(CCC(=O)[*:2])C(=O)CCN; 1Nal = N[C@@H](Cc1cccc2ccccc12)C(=O)O; Sar = CNCC(=O)O
How the values were obtained:
human EPO-R [1] = target: T1, human EPO-R (Homo sapiens, UniProt P19235); test: Reporter assay (fos promoter-driven luciferase); type: cell-based; conditions: murine pre-B-cell line expressing human EPO-R with luciferase reporter; 4 hr incubation; half-maximal relative to EPO
T1 construct: expressed in transfected cells; host or cells: murine pre-B-cell line
T1 sequence (P19235 25-508): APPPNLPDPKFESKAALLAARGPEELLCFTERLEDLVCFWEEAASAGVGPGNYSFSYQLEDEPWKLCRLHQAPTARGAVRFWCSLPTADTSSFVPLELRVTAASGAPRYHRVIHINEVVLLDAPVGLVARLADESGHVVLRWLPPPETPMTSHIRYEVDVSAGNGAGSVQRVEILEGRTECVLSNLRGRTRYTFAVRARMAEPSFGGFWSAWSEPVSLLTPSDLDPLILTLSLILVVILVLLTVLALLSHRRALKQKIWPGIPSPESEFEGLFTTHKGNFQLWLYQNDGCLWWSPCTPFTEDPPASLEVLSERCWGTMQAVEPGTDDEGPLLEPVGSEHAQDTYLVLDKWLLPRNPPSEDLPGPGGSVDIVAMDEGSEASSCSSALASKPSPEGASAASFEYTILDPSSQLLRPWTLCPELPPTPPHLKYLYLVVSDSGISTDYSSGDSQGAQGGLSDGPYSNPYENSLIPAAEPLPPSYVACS
Text: This assay was based upon a murine pre-B-cell line transfected to express human EPO-R and further transfected with a fos promoter-driven luciferase reporter gene construct. Upon exposure to EPO or another EPO-R agonist, such cells respond by synthesizing luciferase. Luciferase causes the emission of light upon addition of its substrate luciferin. Thus, the level of EPO-R activation in such cells may be quantitated via measurement of luciferase activity.
The activity of a test peptide was measured by adding serial dilutions of the test peptide to cells, which were then incubated for 4 hr. After incubation, luciferin substrate was added to the cells, and light emission was measured. The concentration of test peptide that results in a half-maximal emission of light, relative to that observed with EPO, was recorded as the EC50.

human EPO-R [2] = target: T1, human EPO-R; test: Proliferation assay (MTT); type: cell-based; conditions: murine pre-B-cell line expressing human EPO-R, 48 hours incubation, half-maximal relative to EPO
Description: This assay was based upon a murine pre-B-cell line transfected to express human EPO-R. Proliferation of this cell line is dependent on EPO-R activation. The degree of cell proliferation was quantitated using MTT, where the signal in the MTT assay is proportional to the number of viable cells. The activity of a test peptide was measured by adding serial dilutions of the test peptide to cells, which were then incubated for 48 hours. After incubation, MTT was added to the cells, and absorbance was measured. The concentration of test peptide that results in a half-maximal absorbance, relative to that observed with EPO, was recorded as the EC50.

CC[C@H](C)[C@@H]1NC(=O)[C@@H]2CCCN2C(=O)CNC(=O)[C@H](CCSC)NC(=O)[C@H](Cc2c[nH]cn2)NC(=O)[C@@H](NC(=O)[C@H](C)NC(=O)[C@H](Cc2ccc(O)cc2)NC(=O)[C@H](CC(C)C)NC(=O)CNC(=O)CNC(C)=O)CSSC[C@@H](C(=O)N[C@@H](CCC(N)=O)C(=O)N2CCC[C@H]2C(=O)N[C@@H](CC(C)C)C(=O)N[C@@H](CCCNC(=N)N)C(=O)N(C)CC(=O)N[C@@H](CCCCNC(=O)CN(CC(=O)NCCCC[C@H](NC(=O)CN(C)C(=O)[C@H](CCCNC(=N)N)NC(=O)[C@H](CC(C)C)NC(=O)[C@@H]2CCCN2C(=O)[C@H](CCC(N)=O)NC(=O)[C@@H]2CSSC[C@H](NC(=O)[C@H](C)NC(=O)[C@H](Cc3ccc(O)cc3)NC(=O)[C@H](CC(C)C)NC(=O)CNC(=O)CNC(C)=O)C(=O)N[C@@H](Cc3c[nH]cn3)C(=O)N[C@@H](CCSC)C(=O)NCC(=O)N3CCC[C@H]3C(=O)N[C@@H]([C@@H](C)CC)C(=O)N[C@@H]([C@@H](C)O)C(=O)N[C@@H](Cc3cccc4ccccc34)C(=O)N[C@@H](C(C)C)C(=O)N2)C(N)=O)C(=O)CCCC(=O)N(CCN)CCN)C(N)=O)NC(=O)[C@H](C(C)C)NC(=O)[C@H](Cc2cccc3ccccc23)NC(=O)[C@H]([C@@H](C)O)NC1=O [Example 8 peptide (non-PEGylated)]
EC50 (human EPO-R [1]): 0.022 nM | EC50 (human EPO-R [2]): 0.22 nM

I: Ac-GGLYACHYGPIT[1Nal]VCQPLR[Sar]K-NH2 / II: Ac-GGLYACHYGPIT[1Nal]VCQPLR[Sar]K-NH2 (disulfide I:6-I:15, II:6-II:15; linker I:21-II:21 via X1) [Example 11 peptide (non-PEGylated)]
EC50 (human EPO-R [1]): 0.14 nM | EC50 (human EPO-R [2]): 0.23 nM
